Assay results reported in patent US12312319B2, “Isoxazoline compounds, their preparation methods and use” (METISA BIOTECHNOLOGY CO., LTD, priority 2019, dated 2025).
Some of these results come from one statement about several compounds together.

How the values were obtained:
cat fleas = test: Insecticidal test against cat fleas, compound film in culture dish; assay type: in vivo; conditions: dose of 1 μg/cm^2; adult cat fleas; after 72 hours; 25° C.
American dog ticks = test: Insecticidal test against American dog ticks, compound film in culture dish; assay type: in vivo; conditions: dose of 1 μg/cm^2; level 1 nymph; after 24 hours; 25° C.

| Compound | mortality of insects (cat fleas) | mortality of insects (American dog ticks) |
| --- | --- | --- |
| CCN1OC[C@@H](N(C(C)=O)C(=O)c2ccc(C3=NOC(c4cc(Cl)cc(Cl)c4)(C(F)(F)F)C3)cc2C)C1=O (mixture of isomers) [Compound 109] | more than 70% | more than 70% |
| CCN1OC[C@@H](N(C(=O)c2ccc(C3=NOC(c4cc(Cl)c(F)c(Cl)c4)(C(F)(F)F)C3)cc2C)C(=O)C2CC2)C1=O (mixture of isomers) [Compound 120] | more than 70% | more than 70% |
| CCN1OC[C@@H](N(C(=O)COC)C(=O)c2ccc(C3=NOC(c4cc(Cl)cc(Cl)c4)(C(F)(F)F)C3)cc2C)C1=O (mixture of isomers) [Compound 113] | more than 70% | more than 70% |
| CCOCC(=O)N(C(=O)c1ccc(C2=NOC(c3cc(Cl)c(F)c(Cl)c3)(C(F)(F)F)C2)cc1C)[C@@H]1CON(CC)C1=O (mixture of isomers) [Compound 122] | more than 70% | more than 70% |
| CCN1OC[C@@H](N(C(=O)c2ccc(C3=NOC(c4cc(Cl)cc(Cl)c4)(C(F)(F)F)C3)cc2C)C(=O)C2CC2)C1=O (mixture of isomers) [Compound 112] | more than 70% | more than 70% |
| CCOCC(=O)N(C(=O)c1ccc(C2=NOC(c3cc(Cl)cc(Cl)c3)(C(F)(F)F)C2)cc1C)[C@@H]1CON(CC)C1=O (mixture of isomers) [Compound 114] | more than 70% | more than 70% |
| CCN1OC[C@@H](N(C(=O)COC)C(=O)c2ccc(C3=NOC(c4cc(Cl)c(F)c(Cl)c4)(C(F)(F)F)C3)cc2C)C1=O (mixture of isomers) [Compound 121] | more than 70% | more than 70% |
